# Reference: PubChem BioAssay AID1347423 (Functional Genomics Laboratory (NCATS/FGL), 2020)
# Hit rate of the full screen: of about 52,000 sequences, about 210 (0.4%) were called active.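 How the source made its calls: active means gene whose silencing raises cell survival under the drug, median off-target-corrected z-score across its silencing RNAs 2 or more; inactive means the rest.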 The list shows a part of the results.
# Test: Resistance to Poly (ADP-Ribose) Polymerase inhibitor: Gene Identification via Genome-wide siRNA Screen
# Conditions: mouse BRCA2 R2336H ES cells, olaparib, CellTiter-Glo viability; stronger effect = higher value
# Method in brief: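 Genome-wide siRNA screen (3 siRNAs/gene, 20 nM) in mouse ES cells carrying hypomorphic BRCA2 R2336H; olaparib 500 nM added 48 h post-transfection, CellTiter-Glo viability 72 h later. Normalized to plate-median negative control; MAD z-scores, gene median, seed-adjusted.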
row,Sequence,z-score
1,GGAGCUGUUCAGACCCAUUTT against E2f7,inactive: 2.84
2,GCUUGCAUGUACAGACAUUTT against Olfr517,inactive: 1.3
3,CCGCAUCCAGGUUACUACATT against Adcy5,inactive: 0.156
4,CUCUAGUGUUACACUUAUUTT against 1110002N22Rik,inactive: 0.345
5,GGUAGAGAUCAUCAAUGCATT against Ggtla1,inactive: 0.0179
6,GCUUUAAGAAAGAUUGACCTT against 5830433M19Rik,inactive: 0.481
7,GCUUGUACGAUGUUACCCATT against Fbxo32,inactive: 0.939
8,GGAUCCACCAGUUAAGAAATT against 4932408F19Rik,inactive: -0.91
9,GCCAAAUUAGCAGCUUGUGTT against Rln3,inactive: 0.339
10,GGGCAUUCUACUUCAGAGATT against Orc2l,inactive: -1.22
11,GGAGCUGUGGAAGAAGUUCTT against Tbx4,inactive: 0.382
12,GGGAGAAUAUCAUGACCAATT against E330018D03Rik,inactive: 0.658
13,GCAGGUAAGUUAAAUGAUGTT against 5830402J09,inactive: -0.281
14,CCCGUGCUUCAAAUAGAGATT against Prkcdbp,inactive: 1.53
15,GGACCAGAAACUGUAUGCATT against Wrn,inactive: 1.04
16,GGACAGAUUACAUCACUUCTT against Sip1,inactive: -0.135
17,GGAGCAUUAGUCAUUGUUATT against Hsd17b4,inactive: -0.163
18,GGGAGAUUUGUUCUAGUUUTT against E2f2,inactive: 0.0911
19,GGAUAAACCCUACGUUCUATT against 2210409B01Rik,inactive: -0.22
20,GGUGAAAAACCAUUUUGUUTT against 8030466O12Rik,inactive: 0.911
21,GGAAAGUGGAAGACAUUUUTT against Olfr1324,inactive: -0.0518
22,GGUCAUAAGCUAUUCCUGUTT against V1rd12,inactive: 1.51
23,GGACAAGAGGCUUUCAUAUTT against Gabrb1,inactive: 0.983
24,CCUGUUGAAGUUUCUGGAATT against 0610007H07Rik,inactive: -0.0812
25,GGACAGAAAGAACUUGUCGTT against Sema5a,inactive: -2.28
26,GGUAAAAUUCCAGAGUUGUTT against Serpinb9,inactive: -0.671

# A few values from above.
# Value of CCUGUUGAAGUUUCUGGAATT against 0610007H07Rik under z-score: inactive: -0.0812
# Value of GCUUUAAGAAAGAUUGACCTT against 5830433M19Rik under z-score: inactive: 0.481

# Following part:

row,Sequence,z-score
1,CGCAGCAGUUGUGGUCAAUTT against Nnat,inactive: 0.62
2,GGUGGGAAAGGAAUUUGACTT against 2010001H14Rik,inactive: 0.314
3,CCCGGUUGUCUGGAUAUGATT against Map3k3,inactive: -0.363
4,GGCUGUGAGAACGAUGCAATT against BC026682,inactive: -1.78
5,GGAAGAUGUUAAGAGUUACTT against Slc1a3,inactive: 1.22
6,GCAGUUUGGUGAAUCCAGCTT against 4933414E04Rik,inactive: -0.284
7,GGGUUGGUACCUAAGAAUGTT against E2f4,inactive: -0.32
8,CGCCAUUUACACUUCCUGCTT against Sval2,inactive: 1.4
9,GGUGCCUUCCAAAAUUACGTT against Slc22a7,inactive: 0.853
10,GCUCAUUAUUAAACUUACCTT against Tfrc,inactive: -0.254
11,GGAAAGGCUCAAUGAGAGCTT against 3830408P04Rik,inactive: 1.62
12,GGAGCUGAAGAUGAGUUUGTT against Abhd4,inactive: 1.22
13,GGCCUACUUUGAUGUUAAATT against Cdc23,inactive: 0.479
14,GGCCAUUUUAUUGUAUGUUTT against BC027088,inactive: -0.486
15,GCACGUCCAUUCUGCUUUCTT against BC017612,inactive: -0.0127
16,GGCCCAAUGCUGUAAAUAUTT against Hoxb5,inactive: -0.122
17,GGUAACUCAAUUUUGUGUUTT against Gcet2,inactive: -0.189
18,GCAGAUCAAUGGAUUCACCTT against Olfr57,inactive: 1.39
19,GGUCAGCCUAAGAAUGUACTT against Isp1,inactive: -2.89
20,CCAAAAUCGAUAAUUCCCUTT against Acvr1,inactive: 0.486
21,GGAGGAAUGGAUGAACAAATT against Flcn,inactive: -2
22,GGACAAUGGGAACAUGUAATT against 1700022N24Rik,inactive: -0.178
23,GCCAUUCAUGGAGAAGGAUTT against BC020188,inactive: -1.95
24,CGGGAAGAGUACUUGUUUUTT against Cfl1,inactive: 0.0373
25,GGUGUUUCAGGUAUUGAAUTT against Ttk,inactive: -0.252
26,GCCUUUUAGCUGUUCAGGATT against AI451557,inactive: -1.18

row,Sequence,z-score
1,GCACAAGCUGAAGAAGUCATT against S100b,inactive: 2.05
2,GAAAAGCCUAUGUAACUUCTT against Iltifb,inactive: 1.25
3,GCAACUCGACUGGUACUCUTT against Peg10,inactive: 1.33
4,CGUGUAUCUAGUCAUACGGTT against Tap2,inactive: 0.495
5,GGAAGAGACAAAGAGUACATT against 4933402J07,inactive: 0.0796
6,GGCAAUAGAAUCAAGAUUUTT against C130021I20,inactive: 0.151
7,CCAGUGAAGGUUUACUACUTT against Mrpl1,inactive: -0.407
8,GCUAAAUGAGAACAACUCGTT against Trappc2,inactive: 0.0288
9,CCUUUGCUCCACCUACACATT against Gm1053,inactive: -0.514
10,GCUGGGUGAUAAACAAUGUTT against Rhbg,inactive: -0.0089
11,GGCUGUGCUCUCACUCUAUTT against Actg2,inactive: -1.27
12,GGAUACCAUCAUUGAUGUCTT against Dmap1,inactive: -2.31
13,GGCAACAGUAUUUAUGAAUTT against Sim2,inactive: 0.513
14,CCUGAGGUGUUUUACAUAUTT against Usp49,inactive: -0.515
15,GCCUUAAUUAAACACGGCCTT against AL033326,inactive: 0.408
16,GGAAUACGGAUUGAUGGAGTT against Fli1,inactive: 4.01
17,CCCACCACGAAAACUUAUGTT against Hnrph1,inactive: 0.823
18,GGAAAAAGAGGCCAAAAAGTT against Rbbp1,inactive: -0.183
19,GGUAAAUGAUCUGAAAAUGTT against Rps6ka6,inactive: 0.591
20,GCCGGAAGGCCAUUUAUAATT against Acadsb,inactive: 0.00112
21,GGCGGUAUUUUGCUGAUUUTT against Ccnj,inactive: -0.651
22,GGCCAGAUAUUAUAAGAAATT against E330008O22Rik,inactive: 0.0447
23,GCUAGGAAUGAUGUGAGGCTT against Ppp5c,inactive: 1.82
24,GGUGCCAGAUGUCAAGAAATT against Rpn2,inactive: 1.07
25,CCAGAUGAACGGGACAAACTT against Cited2,inactive: -0.473
26,GGGCAAAAUGUGGAGAUGUTT against BC027127,inactive: -0.455

# Two records picked at random from those above:
row,Sequence,z-score
8,GCUAAAUGAGAACAACUCGTT against Trappc2,inactive: 0.0288
6,GGCAAUAGAAUCAAGAUUUTT against C130021I20,inactive: 0.151

# Remaining list, next part

row,Sequence,z-score
1,GGCAUUUCAGGUUCAUGGATT against Zfp101,inactive: -0.36
2,CCCUGACACUAAUUUUCCUTT against Nagpa,inactive: -0.0793
3,GCCGACAGAUCGUCUUGAUTT against Tmc4,inactive: -2.07
4,CGUUUAUGAAGUGAAAGAUTT against Mrpl37,inactive: -0.438
5,GGAGCUGAAUGUCUGUAGCTT against 2410018G20Rik,inactive: 1.04
6,GGUUUGAAUGUCACCGGCATT against 0610030I09Rik,inactive: -0.136
7,GGAAGAAGAAGACCAGGGATT against Parvb,inactive: -2.74
8,GCAGUAGCUGAAUUUUUUATT against Cnot10,inactive: -0.394
9,GGUUCCAGCUAAUAGCCUGTT against Plekhj1,inactive: -0.146
10,GGGUUUGAGGACUUGAUGATT against 2610019A05Rik,inactive: 1.5
11,GGCUCAGCUAAGAAAUACGTT against 1500001L15Rik,inactive: -0.739
12,GCGAAUUCAUGUUUGAGGATT against Foxf2,inactive: -1.13
13,CGGAUAUGAAUUUUUUGCUTT against Ppp1cb,inactive: 0.228
14,CCUGAUCGUCAUCUAUACCTT against Irs3,inactive: 1.05
15,GAUUGUGCCUUAUCUCUAATT against V1rh11,inactive: -1.16
16,CCAAGCUAGUCCUCAAGCUTT against Snapc2,inactive: 0.955
17,CUCUGAACGACCUAUACCUTT against Cebpd,inactive: -1.79
18,CCACUUUUUGGAUAAUCUGTT against BC046331,inactive: 1.23
19,GGAGCCUGUCUUUUAUUGATT against Olfr938,inactive: 0.534
20,GGAUCCUUGUACAGAAAUGTT against Snx26,inactive: 0.135
21,GGGAUGCACUGAGUGAAGATT against Scg2,inactive: -0.207
22,GGUCUAUGUGUGGAUGGAATT against Crb1,inactive: -0.655
23,GGACACAAAUUUCGUGAUGTT against 4922502D21Rik,inactive: 1.2
24,GGUCUUUGUGUCCACCUACTT against Grca,inactive: -0.161
25,GCUUCACAGAAGCUUUGUGTT against Ccl4,inactive: -0.331
26,GGCUUUGAGCCCGAAAAUCTT against Zfpm2,inactive: -0.193
